Results are given in words; binding and its absence hold for the method and conditions named. Binding seen in cells or lysates may run through a third protein. A yes stands for co-enrichment or nearness to the bait. Other partners may have been found.
Target: Adig-FLAG (Adipogenin), overexpressed in adipocytes with AAVs (UniProt Q8R400)
Assay: affinity purification with mass spectrometry

B1: LDAF1, endogenous in adipocytes (protein, UniProt Q922Z1 1-161)
chain: MAKEEPPSVSRDLQELQRKLGLLLESFLNNSKVVAFMKSPVGRFLDRHPFVTLTVLMFVTMSAIPVGFFLLIVVLTSLGALMGAILLEGLVISVCGLSLLCVLCGLGFLSLALSGIAMMSYVVVSCLMSYWFSPSRPLTQQNANVDCQLAMKFTESERLIF
  binding: binds

— article doi:10.1101/2024.07.25.605195 (bioRxiv, 2024)
